Article PMC8131943

Amino acid sequences for entries named in this document (tags omitted). A change or cut given only in a name is not applied to a line headed by its entry.
UniProt Q387F0: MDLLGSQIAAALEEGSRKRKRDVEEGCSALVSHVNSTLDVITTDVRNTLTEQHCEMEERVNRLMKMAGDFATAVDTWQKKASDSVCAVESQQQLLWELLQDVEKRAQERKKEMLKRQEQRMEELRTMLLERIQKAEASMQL
UniProt Q582U6: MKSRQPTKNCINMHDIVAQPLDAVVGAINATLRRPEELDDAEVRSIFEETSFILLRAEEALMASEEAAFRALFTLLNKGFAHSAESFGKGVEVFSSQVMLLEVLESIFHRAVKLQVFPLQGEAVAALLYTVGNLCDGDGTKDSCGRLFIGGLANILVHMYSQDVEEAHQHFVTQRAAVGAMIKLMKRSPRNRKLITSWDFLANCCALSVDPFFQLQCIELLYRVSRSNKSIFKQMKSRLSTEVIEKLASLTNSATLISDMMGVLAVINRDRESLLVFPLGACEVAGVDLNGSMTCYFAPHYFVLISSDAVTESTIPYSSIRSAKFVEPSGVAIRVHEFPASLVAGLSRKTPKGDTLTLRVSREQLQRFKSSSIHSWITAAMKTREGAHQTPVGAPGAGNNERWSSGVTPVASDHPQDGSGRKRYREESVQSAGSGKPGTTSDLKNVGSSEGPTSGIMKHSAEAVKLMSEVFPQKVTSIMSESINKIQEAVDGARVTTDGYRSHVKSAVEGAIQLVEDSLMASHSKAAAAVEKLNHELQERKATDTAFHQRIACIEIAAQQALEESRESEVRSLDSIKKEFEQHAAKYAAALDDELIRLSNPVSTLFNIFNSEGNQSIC
UniProt Q38FF3: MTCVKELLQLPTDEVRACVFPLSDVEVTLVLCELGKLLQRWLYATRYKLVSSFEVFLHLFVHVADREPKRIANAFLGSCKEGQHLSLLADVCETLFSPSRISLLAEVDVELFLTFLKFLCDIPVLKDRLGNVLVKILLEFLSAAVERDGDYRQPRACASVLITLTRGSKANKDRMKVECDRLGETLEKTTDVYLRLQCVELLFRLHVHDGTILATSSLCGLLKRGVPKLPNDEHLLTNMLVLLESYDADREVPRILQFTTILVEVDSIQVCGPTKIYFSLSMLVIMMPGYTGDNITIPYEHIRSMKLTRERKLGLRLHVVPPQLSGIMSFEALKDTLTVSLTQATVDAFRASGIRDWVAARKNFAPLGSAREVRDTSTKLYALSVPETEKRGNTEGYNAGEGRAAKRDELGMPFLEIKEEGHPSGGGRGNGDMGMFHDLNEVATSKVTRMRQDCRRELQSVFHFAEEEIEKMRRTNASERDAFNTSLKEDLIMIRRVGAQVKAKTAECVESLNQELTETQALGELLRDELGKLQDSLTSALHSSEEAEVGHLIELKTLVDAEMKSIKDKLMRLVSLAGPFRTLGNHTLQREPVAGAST

Assays:
[1] = target: KKT16 (Tb927.11.1000), 6xHis-tagged (Trypanosoma brucei) (UniProt Q387F0); experiment: pull-down; three subunits co-expressed in E. coli from a polycistronic vector (pBA202); purified through 6xHis-KKT16 with a Ni-NTA Fast Start Kit under native condition; Coomassie-stained gel
[2] = target: KKT16 (Tb927.11.1000), 6xHis-tagged (Trypanosoma brucei) (UniProt Q387F0); experiment: cross-linking; BS3 cross-linking mass spectrometry of the purified KKT16-17-18 complex (0.5 mg/ml) in 25 mM sodium phosphate pH 7.5, 250 mM NaCl, 5% glycerol, 125 mM imidazole, 0.25 mM TCEP; on ice for 60 min; cross-linked bands cut from the gel; pLink search; both purified
[3] = target: KKT17 (Tb927.3.2330) (Trypanosoma brucei) (UniProt Q582U6); experiment: as above

binding [1] | binding [2] | binding [3] | Substance
binds | binds | – | KKT17 (Tb927.3.2330) (from UniProt Q582U6)
binds | – | binds | KKT18 (Tb927.9.3800) (from UniProt Q38FF3)

Results are given in words; binding and its absence hold for the method and conditions named. Binding calls can cover weak binding; strength is not graded here. For some of these results: Binding seen in cells or lysates may run through a third protein.
